Results on two compounds are retold here after paper PMC12649483, “Novel Chalcone Derivatives as Anti-Leishmania infantum Agents with Potential Synergistic Activity and In Silico Insights” (Antibiotics, 2025).

For data set [1], the system named is L. infantum promastigotes. Description: In vitro leishmanicidal activity (MTT) in promastigote forms. Type of data set: cell-based, Leishmania infantum. The settings on record: CC50 (PBMCs) / IC50 promastigotes. The method, then:
(§1) Promastigote forms of L. infantum [IOC/L0579 (MHOM/BR/1974/PP75)] were cultured in Schneider’s medium (pH 7.0), supplemented with 20% fetal bovine serum (FBS), 1% human male urine, and 1% antibiotic solution (penicillin 200 U/mL and streptomycin 0.1 mg/mL), and maintained at 26 ± 1 °C (B.O.D SL 200—SOLAB, Piracicaba, SP, BR). The generation of extracellular axenic amastigote forms of L. infantum was based on protocols previously described by Debrabant et al. (2004), with modifications that included the use of Schneider’s medium adjusted to pH 5.5 and incubation at 37 °C (CO2 Series 3517-2, Cornelius, OR, USA).
The antileishmanial activity of compounds against metacyclic promastigote populations was assessed using the MTT (ACROS, Livingston, NJ, USA) assay for cell viability analysis. […]
In 96-well plates, initial screening was performed with serial dilutions (400 to 3.12 μM) of compounds 3a–c and 4a–c in duplicate. […] Following 72 h-treatment of promastigotes and 24 h-treatment of amastigotes (accounting for the stationary phase culture characteristics), MTT was added for 4 h, followed by overnight incubation with sodium dodecyl sulfate (SDS) for spectrophotometric (Biotek model ELx800, Winooski, VT, USA) reading at 540 nm.

In data set [2] the test system is L. infantum axenic amastigotes. Description: In vitro leishmanicidal activity (MTT) in axenic amastigote forms. Type of data set: cell-based, Leishmania infantum. The settings on record: CC50 (PBMCs) / IC50 amastigotes. As for the experimental part:
as §1
In 96-well plates, initial screening was performed with serial dilutions (400 to 3.12 μM) of compounds 3a–c and 4a–c in duplicate. […] AmB was used as a positive control due to its established leishmanicidal activity, tested at concentrations ranging from 10 to 0.078 μM. Following 72 h-treatment of promastigotes and 24 h-treatment of amastigotes (accounting for the stationary phase culture characteristics), MTT was added for 4 h, followed by overnight incubation with sodium dodecyl sulfate (SDS) for spectrophotometric (Biotek model ELx800, Winooski, VT, USA) reading at 540 nm.

Structures are written as SMILES.

Turning to `Cc1ccc(C(=O)/C=C/c2ccc(OCC(=O)NC3CCCCC3)cc2)cc1` [Compound 4a, (E)-N-Cyclohexyl-2-(4-(3-oxo-3-p-tolylprop-1-enyl)phenoxy)acetamide], the “SI (promastigotes)” value in data set [1] was determined as 12.2. The “SI (amastigotes)” value in data set [2] is recorded as 8.
With `COc1ccc(C(=O)/C=C/c2ccc(OCC(=O)NC3CCCCC3)cc2)cc1` [Compound 4b, (E)-N-Cyclohexyl-2-(4-(3-(4-methoxyphenyl)-3-oxoprop-1-enyl)phenoxy)acetamide], the “SI (promastigotes)” value in data set [1] was found to be 72. In addition, the “SI (amastigotes)” value in data set [2] is reported as 148.6.
